Assay results from PubChem BioAssay AID1439 (NMMLSC, 2008).
In all, about 220,000 compounds went through this assay and about 770 (0.35%) were called active. The shares of active, inactive and inconclusive entries below differ from those in the screen. Cut-off read from the data, not from the text of the source: active = binding response below about 49% or above about 150%; inconclusive = no clear call, values can overlap the other calls; inactive = in between.

Amino acid sequences for entries named in this document (tags omitted).
UniProt P09471, whole entry, looked up: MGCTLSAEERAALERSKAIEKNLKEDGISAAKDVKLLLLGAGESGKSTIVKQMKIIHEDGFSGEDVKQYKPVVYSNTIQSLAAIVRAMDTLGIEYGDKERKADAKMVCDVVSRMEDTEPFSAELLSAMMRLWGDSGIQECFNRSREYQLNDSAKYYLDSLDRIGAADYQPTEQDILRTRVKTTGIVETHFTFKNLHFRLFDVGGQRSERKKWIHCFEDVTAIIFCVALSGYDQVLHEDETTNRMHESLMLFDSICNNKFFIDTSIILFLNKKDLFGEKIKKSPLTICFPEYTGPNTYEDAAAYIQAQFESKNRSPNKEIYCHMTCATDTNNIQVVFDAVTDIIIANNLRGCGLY

The compounds below were run against Guanine nucleotide-binding protein G(o) subunit alpha (Homo sapiens) (UniProt P09471) (assay: RGS7-Galphao binding modulators, primary screen, biochemical, multiplexed bead flow cytometry (AID 1439;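 note: fluorescent Galphao held in activated GDP-AlF4 state binding bead-coupled RGS7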)). Settings: at 10 µM, actives lie on both sides.

With `Cc1cc(=O)[nH]c(S)c1C#N` as the compound, how does the binding response (% of control) read?
The binding response (% of control) was inconclusive: 28.2%.

Which binding response (% of control) does the source give for `COc1ccc(-n2c(SCC(=O)N3CCCCC3)nc(O)cc2=O)cc1` here?
The binding response (% of control) was inactive: 106%.

For `CCCCCc1cc(=O)oc2c(C(CCN(CC)CC)c3ccc(N(C)C)cc3)c(OC)cc(OC)c12` (stereo not drawn), which binding response (% of control) is on record?
The binding response (% of control) was inconclusive: 95%.

For `C=CCOc1ccc(/C(O)=C2/C(=O)C(=O)N(CCCN3CCOCC3)C2c2ccc(OC)cc2)cc1` (stereo not drawn), which binding response (% of control) is on record?
Its binding response (% of control) is inactive: 104%.

With `CCOC(=O)C(=CNc1ccc(C(F)(F)F)cc1)C(=O)OCC` as the compound, how does the binding response (% of control) read?
The binding response (% of control) was inconclusive: 118%.

With `O=C(NCc1ccncc1)c1cc(-c2ccc(Cl)cc2)oc1C(F)(F)F` as the compound, how does the binding response (% of control) read?
Its binding response (% of control) is inconclusive: 100%.

How did the binding response (% of control) turn out when `CN(C)CC(c1ccccc1)c1ccccc1` was run?
Its binding response (% of control) is inconclusive: 76.5%.

With `O=C(O)c1ccc(/C=N/n2cc(-c3ccccc3)[nH]c2=S)cc1` as the compound, how does the binding response (% of control) read?
Its binding response (% of control) is inconclusive: -29.2%.

`O=C(CN1CCOCC1)Nc1ccc(N2CCN(c3ccccc3)CC2)c(F)c1` was tested. Which binding response (% of control) did it give?
The binding response (% of control) was inconclusive: 111%.

Which binding response (% of control) does the source give for `COc1ccc(OC(=O)NCCc2ccccc2)cc1` here?
Its binding response (% of control) is inconclusive: 97.3%.

`CNC(=O)C1CC(=O)N(CCCc2ccccc2)C(=Nc2ccccc2)S1` (stereo not drawn) was tested. Which binding response (% of control) did it give?
The binding response (% of control) was inactive: 92.4%.

For `Cc1ccc(N=Nc2ccc(O)c(P(=O)(c3ccccc3)c3ccccc3)c2)cc1`, which binding response (% of control) is on record?
Its binding response (% of control) is inconclusive: 116%.

`Nc1cc(N)nc(SCC(=O)NNC(=O)Cc2ccccc2)n1` was tested. Which binding response (% of control) did it give?
The binding response (% of control) was inconclusive: 117%.

How did the binding response (% of control) turn out when `Cc1ccc(-c2cc(-c3ccco3)c3c(N)c(C(=O)NN)oc3n2)cc1` was run?
Its binding response (% of control) is inconclusive: 28.1%.

`O=C1Nc2ncccc2OC1CCCl` (stereo not drawn) was tested. Which binding response (% of control) did it give?
Its binding response (% of control) is inactive: 100%.

How did the binding response (% of control) turn out when `COCCN1C=C2C(=O)C(C)(OC(=O)c3cccs3)C(=O)C=C2C=C1CCCC(=O)OC` (stereo not drawn) was run?
Its binding response (% of control) is inconclusive: 89.3%.

With `COc1cc(/C=N\NC(=O)c2ccc(Cl)cc2)ccc1Oc1ccc([N+](=O)[O-])cn1` as the compound, how does the binding response (% of control) read?
The binding response (% of control) was inconclusive: 289%.

How did the binding response (% of control) turn out when `Cn1cc(Br)c(C(=O)Nc2ncc(Br)s2)n1` was run?
Its binding response (% of control) is active: 11.9%.

How did the binding response (% of control) turn out when `COc1cc(/C=C\C(=O)OCn2nnc3ccccc3c2=O)cc(OC)c1OC` was run?
Its binding response (% of control) is inactive: 100%.

Which binding response (% of control) does the source give for `COC(C[C@@H]1O[C@H]1[C@H](O)COCc1ccccc1)OC` here?
The binding response (% of control) was inconclusive: 109%.

For `Cc1cccc(NC2=C(C#N)C(=O)NC3(CCCC3)S2)c1`, which binding response (% of control) is on record?
The binding response (% of control) was inconclusive: 151%.

`Cc1ccc(N(C(=O)Cn2nnc(-c3ccc(F)cc3)n2)C(C(=O)NC(C)(C)C)c2ccncc2)cc1` (stereo not drawn) was tested. Which binding response (% of control) did it give?
The binding response (% of control) was inactive: 104%.

`CCc1nc2ccccc2c(C(=O)OCC(=O)NC(=O)c2cccn2C)c1C` was tested. Which binding response (% of control) did it give?
The binding response (% of control) was inconclusive: 99%.

Which binding response (% of control) does the source give for `CC(C)CSc1ccc(S(=O)(=O)NCC(=O)O)cc1[N+](=O)[O-]` here?
Its binding response (% of control) is active: 278% [activator].

With `CCCCC(C(=O)N/N=C/c1ccccn1)C(=O)N/N=C/c1ccccn1` as the compound, how does the binding response (% of control) read?
The binding response (% of control) was inconclusive: 453%.

Which binding response (% of control) does the source give for `CCOC(=O)C1CCCN(C(=O)CSc2ccc(Br)cc2)C1` (stereo not drawn) here?
Its binding response (% of control) is inconclusive: 104%.

For `Cc1nc2ccc(NC(=S)NCc3ccccc3)cc2nc1C`, which binding response (% of control) is on record?
Its binding response (% of control) is inconclusive: 95.5%.

How did the binding response (% of control) turn out when `O=C1C(C2=NC(c3ccccn3)C3C(=O)N(c4ccc(OC(F)(F)F)cc4)C(=O)C23)=C(O)c2ccccc21` (stereo not drawn) was run?
Its binding response (% of control) is inconclusive: 88.3%.

Which binding response (% of control) does the source give for `CCOC(=O)N1CCN(/C=C(\C#N)c2nc3ccccc3s2)CC1` here?
The binding response (% of control) was inactive: 108%.

How did the binding response (% of control) turn out when `CSc1cccc(NC(=O)NCc2cccc(CNC(=O)Nc3cccc(SC)c3)c2)c1` was run?
The binding response (% of control) was inconclusive: 110%.

With `Cc1nc(-c2cccc(Cl)c2)n[nH]1` as the compound, how does the binding response (% of control) read?
Its binding response (% of control) is inconclusive: 100%.

For `CN(C(=O)Nc1ccc(Cl)cc1Cl)C1CCCC1`, which binding response (% of control) is on record?
Its binding response (% of control) is inactive: 96.4%.

How did the binding response (% of control) turn out when `CC(=O)c1ccc(NC(=O)c2ccc(C)c(Br)c2)cc1` was run?
Its binding response (% of control) is inactive: 92.4%.

Which binding response (% of control) does the source give for `CN1C(C(=O)NCCc2cccs2)CC2Cn3c(nc4cc5ccccc5cc43)C21` (stereo not drawn) here?
Its binding response (% of control) is inconclusive: 96.5%.

With `O=c1[nH]c(O)c(/C=C2\C=Nc3ccccc32)[nH]1` as the compound, how does the binding response (% of control) read?
The binding response (% of control) was inconclusive: 121%.

How did the binding response (% of control) turn out when `COc1ccc(CCNC(=O)C(=O)NCCCN2CCOCC2)cc1` was run?
The binding response (% of control) was inconclusive: 110%.

With `Cc1cc(C)c(OCC(=O)N(Cc2ccc(N(C)C)cc2)C2CCS(=O)(=O)C2)c(C)c1` (stereo not drawn) as the compound, how does the binding response (% of control) read?
The binding response (% of control) was inconclusive: 87.4%.

With `Cc1ccc(S(=O)(=O)N(C)C)cc1NC(=O)Nc1c(-c2ccccc2)noc1C` as the compound, how does the binding response (% of control) read?
Its binding response (% of control) is inconclusive: 386%.

With `CC(Cc1cccs1)NC(=O)c1cccs1` (stereo not drawn) as the compound, how does the binding response (% of control) read?
Its binding response (% of control) is inconclusive: 94.4%.

Which binding response (% of control) does the source give for `Fc1cccc(Nc2ncnc3[nH]ncc23)c1` here?
The binding response (% of control) was inconclusive: 91.4%.

`Cc1csc2c(SCC(=O)NNS(=O)(=O)c3cccc(C(F)(F)F)c3)ncnc12` was tested. Which binding response (% of control) did it give?
The binding response (% of control) was inconclusive: 93.5%.

Which binding response (% of control) does the source give for `Cc1ccc(C(=O)NNC(=O)c2nn(-c3ccc(F)cc3)ccc2=O)cc1` here?
The binding response (% of control) was inconclusive: 103%.

For `CCOC(=O)C1CCN(C(=O)COc2ccc(Br)cc2C)CC1`, which binding response (% of control) is on record?
The binding response (% of control) was inconclusive: 75.1%.

With `NS(=O)(=O)c1ccc(NC(=S)NCc2ccc(Cl)cc2)cc1` as the compound, how does the binding response (% of control) read?
Its binding response (% of control) is inactive: 127%.

With `CN(C)CCNc1ncnc2c1sc1nc(N3CCCC3)c3c(c12)CC(C)(C)OC3` as the compound, how does the binding response (% of control) read?
Its binding response (% of control) is inconclusive: 110%.

For `COc1ccccc1OCCOCCOc1ccc(C)cc1[N+](=O)[O-]`, which binding response (% of control) is on record?
Its binding response (% of control) is inactive: 122%.

With `COC(=O)/C(C#N)=C/c1ccc(-c2ccc(S(N)(=O)=O)cc2)o1` as the compound, how does the binding response (% of control) read?
The binding response (% of control) was inconclusive: 104%.

For `CN1CCN(CCc2nc3cc(NC(=O)c4ccco4)ccc3n2C)CC1`, which binding response (% of control) is on record?
Its binding response (% of control) is inconclusive: 137%.

`O=C(/C=C/c1cccs1)N1CCC2(CC1)Oc1ccc(Cl)cc1C(=O)C21CC(c2cccnc2)=NO1` (stereo not drawn) was tested. Which binding response (% of control) did it give?
The binding response (% of control) was inconclusive: 96.9%.

How did the binding response (% of control) turn out when `CN(C)CCOC(=O)NCC12CC3CC(CC(C3)C1)C2` was run?
Its binding response (% of control) is inconclusive: -67.2%.

For `COc1ccc(Nc2nc(N)c([N+](=O)[O-])c(NCc3ccccc3)n2)cc1`, which binding response (% of control) is on record?
The binding response (% of control) was inconclusive: 385%.

Which binding response (% of control) does the source give for `COc1ccc2c(C)cc(SCc3c(C)noc3C)nc2c1` here?
The binding response (% of control) was inactive: 117%.

With `S=C(NCCc1ccccc1)Nc1c(Cl)cccc1Cl` as the compound, how does the binding response (% of control) read?
Its binding response (% of control) is inconclusive: 98.1%.

Which binding response (% of control) does the source give for `Cc1ccc(NC2(c3nnnn3-c3c(C)cccc3C)CCCCC2)cc1` here?
Its binding response (% of control) is inactive: 112%.

`CCN1CCc2nc(N)sc2C1` was tested. Which binding response (% of control) did it give?
Its binding response (% of control) is inconclusive: 91.4%.

Which binding response (% of control) does the source give for `COC(C[C@H]1O[C@H]1[C@@H](O)COCc1ccccc1)OC` here?
The binding response (% of control) was inconclusive: 108%.

Which binding response (% of control) does the source give for `Cc1cc(C)n(-c2n[nH]c(=O)c3ccccc23)n1` here?
Its binding response (% of control) is inconclusive: 241%.

For `CCOP(=O)(CN(CC)C(=O)c1ccccc1Br)OCC`, which binding response (% of control) is on record?
Its binding response (% of control) is inconclusive: 76.7%.
